Measurements published in PMC7550751, “Application of Force to a Syndecan-4 Containing Complex With Thy-1–αVβ3 Integrin Accelerates Neurite Retraction” (Frontiers in Molecular Biosciences, 2020).
These are yes or no findings as the source states them, for the method shown. Some binding calls cover weakened binding; strength is not graded here. Tags and fused reporters may be left off the sequences shown. Values belong to the binder of their own block, whether it stands above or below them.

Sequences of proteins named here, by UniProt entry; tags and fusion partners are left off. Residues count along the entry.
UniProt P09038, residues 143-288: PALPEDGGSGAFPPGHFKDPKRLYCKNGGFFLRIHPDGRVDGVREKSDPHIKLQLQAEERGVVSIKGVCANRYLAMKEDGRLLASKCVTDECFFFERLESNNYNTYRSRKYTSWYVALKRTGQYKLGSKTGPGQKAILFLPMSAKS

Assays:
Thy-1-Fc wild type = biological target: T1, Thy-1-Fc wild type (UniProt P01831 20-131); assay: optical tweezers force spectroscopy (force-ramp adhesion frequency assay); miniTweezers; Fc proteins on protein G-coated polystyrene beads at femtomolar concentration; Thy-1-Fc (wild type or mutant) on the 2.1 μm bead held by a micropipette, Syndecan-4-Fc on the 3.1 μm optically trapped bead; loading rate 10 pN/s; at least 50 approach-retraction cycles per 4-5 pairs of beads; 10 mM Hepes pH 7.4, 100 mM NaCl, 1 mM MgCl2, 25°C; both purified
T1 construct: In the functional rows m1 stands for Thy-1 on the surface of CAD neuronal cells; also called Thy-1(RLD)-Fc; CD90; source: purified; obtained as previously reported (Schneider, 2000; Leyton et al., 2001)
T1 sequence (looked up): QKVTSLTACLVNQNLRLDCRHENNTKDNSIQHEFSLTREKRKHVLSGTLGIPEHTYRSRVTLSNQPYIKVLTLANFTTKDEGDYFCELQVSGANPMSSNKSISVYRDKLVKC

[1] = biological target: recombinant human basic Fibroblast Growth Factor (human) (UniProt P09038); assay: ELISA; bFGF (1 μg/ml) immobilised overnight at 4°C on a 96-well Maxisorp plate; serum-free medium containing Syndecan-4-Fc added for 2 h at 37°C; detected with HRP-coupled goat anti-human IgG1 and TMB (absorbance at 450 nm); only the target purified

binding (Thy-1-Fc wild type): binds
B1: Commercially purified human Syndecan (ectodomain)-4-Fc (Fc fusion, UniProt P31431 19-145, looked up)
chain: ESIRETEVIDPQDLLEGRYFSGALPDDEDVVGPGQESDDFELSGSGDLDDLEDSMIGPEVVHPLVPLDNHIPERAGSGSQVPTEPKKLEENEVIPKRISPVEESEDVSNKVSMSSTVQGSNIFERTE
notes: Syndecan-4, human, ectodomain; Heparan sulfate proteoglycan; also called Syndecan-4-Fc; Synd-4-Fc

binding [1]: binds
B2: Syndecan-4-Fc (serum-free medium of transfected HEK293T cells) (Fc fusion, UniProt P31431 19-145)
chain: B1 chain
modifications: heparan sulfate chains (shown by Heparitinase III treatment and immunoblot)
